{"sequences": {"note": "Protein sequences, listed by entry. Tags and fused reporters are not part of them. Lines headed by an entry give the natural chain unless they say otherwise; changes in a name come on top.", "UniProt O44158": "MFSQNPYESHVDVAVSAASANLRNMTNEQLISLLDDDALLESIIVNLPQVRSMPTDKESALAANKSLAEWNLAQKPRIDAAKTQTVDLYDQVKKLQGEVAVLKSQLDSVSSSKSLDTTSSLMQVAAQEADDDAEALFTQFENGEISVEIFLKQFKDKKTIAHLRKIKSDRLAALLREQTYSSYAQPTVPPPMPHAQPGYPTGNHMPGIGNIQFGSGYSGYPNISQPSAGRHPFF", "UniProt Q22866": "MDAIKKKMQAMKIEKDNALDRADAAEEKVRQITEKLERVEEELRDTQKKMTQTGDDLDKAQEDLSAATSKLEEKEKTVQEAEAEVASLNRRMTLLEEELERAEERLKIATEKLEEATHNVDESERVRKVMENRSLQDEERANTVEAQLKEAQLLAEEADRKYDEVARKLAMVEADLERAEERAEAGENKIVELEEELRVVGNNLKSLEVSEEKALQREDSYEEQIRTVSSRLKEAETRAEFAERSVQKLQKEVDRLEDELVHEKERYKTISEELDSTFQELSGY", "UniProt Q17687": "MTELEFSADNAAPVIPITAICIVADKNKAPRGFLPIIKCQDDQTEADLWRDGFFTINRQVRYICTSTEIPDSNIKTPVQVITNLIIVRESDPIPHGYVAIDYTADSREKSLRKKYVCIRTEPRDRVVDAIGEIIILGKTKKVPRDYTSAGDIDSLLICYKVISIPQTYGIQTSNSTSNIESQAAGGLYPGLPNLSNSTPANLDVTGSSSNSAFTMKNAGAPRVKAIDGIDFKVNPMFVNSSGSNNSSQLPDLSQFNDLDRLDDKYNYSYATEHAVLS"}, "source": "paper PMC1978536", "about": "“MVB-12, a Fourth Subunit of Metazoan ESCRT-I, Functions in Receptor Downregulation” (PLoS ONE, 2007)", "molecules": {"B1": {"name": "VPS-28 (recombinant C. elegans) (natural protein, UniProt Q9NA26 1-210, looked up)", "chain": "MSSQNANLMREVRLFENHSEREQMENLSELFAVLNALEHLEKMFSRDHVSADEYKSECFKLIDQYKVTMRLVHGATSIEDFAKKYRLHCPAAIERIREGRPITVKDDQGNVLKHIASIVEQFITFLDALRLNTRAVDDLYPGLDDLYNAINTTSRVPIDAIVTTKVKKWHDRLSSMAASDEISDEDARQMIFDVESAYQAFNKALNELKH", "notes": "VPS-28, C. elegans; open reading frame amplified from N2 cDNA"}}, "note": "No constants are given. Whether binding was seen depends on the method and setting. In cells and extracts the contact can be indirect. A yes stands for co-enrichment or nearness to the bait. Other partners may have been found. No binding means not detected with the bait.", "data": [{"target": "GFP^LAP:VPS-37, fusion of VPS-37 with a GFP containing tandem affinity purification tag (C. elegans) (UniProt O44158)", "test": "affinity purification with mass spectrometry; GFP^LAP:VPS-37 isolated from C. elegans embryo extracts with anti-GFP antibodies, GFP removed by protease cleavage, re-isolated on S-protein agarose and eluted; solution mass spectrometry of the eluate", "values": [{"molecule": "LEV-11 (from UniProt Q22866 1-284)", "binding": "no binding"}, {"molecule": "MVB-12 (C. elegans, endogenous) (from UniProt Q17687)", "binding": "binds"}, {"molecule": "B1", "binding": "binds"}]}]}
